# The supplement of paper PMC8728848
# Some of the results follow.
# B1: Protein L(B1-B4) (Finegoldia magna), Q51912 (protein)
# chain: KEETPETPETDSEEEVTIKANLIFANGSTQTAEFKGTFEKATSEAYAYADTLKKDNGEYTVDVADKGYTLNIKFAGKEKTPEEPKEEVTIKANLIYADGKTQTAEFKGTFEEATAEAYRYADALKKDNGEYTVDVADKGYTLNIKFAGKEKTPEEPKEEVTIKANLIYADGKTQTAEFKGTFEEATAEAYRYADLLAKENGKYTVDVADKGYTLNIKFAGKEKTPEEPKEEVTIKANLIYADGKTQTAEFKGTFAEATAEAYRYADLLAKENGKYTADLEDGGYTINIRFAG
# Assays:
# Assay in all cases: glycan array binding signal (z-score within array); higher = stronger binding
# Conditions in all cases: glycan notation: IUPAC condensed, linker removed
# [1] = target: Gal3S(b1-4)Glc
# In short: (§1)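 The binding signal is a Z-score computed within each array and averaged over linkers. Arrays of the same protein sequence at different concentrations or buffers were also averaged together. Data originate from 3228 arrays in the Consortium for Functional Glycomics database, kept only where the protein sequence was available.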
# [2] = target: Gal3S(b1-4)Glc6S
# In short: as §1
# [3] = target: Gal3S(b1-4)GlcNAc
# In short: as §1
# [4] = target: Gal3S(b1-4)[Fuc(a1-3)]Glc6S
# In short: as §1
# [5] = target: Gal3S(b1-4)[Fuc(a1-3)]GlcNAc
# In short: as §1
# [6] = target: Gal3S(b1-4)[Fuc(a1-3)]GlcNAc6S
# In short: as §1
# [7] = target: Gal3S4S(b1-4)GlcNAc
# In short: as §1
# [8] = target: Gal3S6S(b1-4)GlcNAc
# In short: as §1
# [9] = target: Gal3S6S(b1-4)GlcNAc6S
# In short: as §1
# [10] = target: Gal4S(b1-4)GlcNAc
# In short: as §1
# [11] = target: Gal4S6S(b1-4)GlcNAc
# In short: as §1
# [12] = target: Gal6P(b1-4)GlcNAc
# In short: as §1
# [13] = target: Gal6S(b1-3)GlcNAc
# In short: as §1
# [14] = target: Gal6S(b1-3)GlcNAc6S
# In short: as §1
# [15] = target: Gal6S(b1-4)Glc
# In short: as §1
# [16] = target: Gal6S(b1-4)Glc6S
# In short: as §1
# [17] = target: Gal6S(b1-4)GlcNAc
# In short: as §1
# [18] = target: Gal6S(b1-4)GlcNAc6S
# In short: as §1
# [19] = target: GalNAc(a1-3)Gal
# In short: as §1
# [20] = target: GalNAc(a1-3)GalNAc
# In short: as §1
# [21] = target: GalNAc(a1-3)GalNAc(a1-3)Gal(a1-4)Gal(b1-4)GlcNAc
# In short: as §1
# [22] = target: GalNAc(a1-3)GalNAc(b1-3)Gal(a1-4)Gal(b1-4)Glc
# In short: as §1
# [23] = target: GalNAc(b1-3)Gal
# In short: as §1
# [24] = target: GalNAc(b1-3)Gal(a1-4)Gal(b1-4)GlcNAc
# In short: as §1
# [25] = target: GalNAc(b1-3)Gal(a1-4)Gal(b1-4)GlcNAc(b1-3)Gal(b1-4)Glc
# In short: as §1
# [26] = target: GalNAc(b1-3)Gal(a1-6)Gal(b1-4)Glc
# In short: as §1
# [27] = target: GalNAc(b1-3)GalNAc
# In short: as §1
# [28] = target: GalNAc(b1-3)GlcNAc
# In short: as §1
# [29] = target: GalNAc(b1-4)Gal(b1-4)Glc
# In short: as §1
# [30] = target: GalNAc(b1-4)GlcNAc
# In short: as §1
# [31] = target: GalNAc(b1-4)GlcNAc(b1-2)Man
# In short: as §1
# [32] = target: GalNAc(b1-4)GlcNAc(b1-2)Man(a1-3)[GalNAc(b1-4)GlcNAc(b1-2)Man(a1-6)]Man(b1-4)GlcNAc(b1-4)GlcNAc
# In short: as §1
# [33] = target: GalNAc(b1-4)GlcNAc(b1-3)GalNAc(b1-4)GlcNAc
# In short: as §1
# [34] = target: GalNAc(b1-4)GlcNAc6S
# In short: as §1
# [35] = target: GalNAc(b1-6)GalNAc
# In short: as §1
# [36] = target: GalNAc3S(b1-4)GlcNAc
# In short: as §1
# [37] = target: GalNAc3S(b1-4)GlcNAc3S
# In short: as §1
binder,measurement,setting,value
B1,glycan array binding signal (z-score),[1],-0.905
same,glycan array binding signal (z-score),[2],-0.522
same,glycan array binding signal (z-score),[3],-0.525
same,glycan array binding signal (z-score),[4],2.28
same,glycan array binding signal (z-score),[5],-0.588
same,glycan array binding signal (z-score),[6],-0.253
same,glycan array binding signal (z-score),[7],-0.431
same,glycan array binding signal (z-score),[8],-0.513
same,glycan array binding signal (z-score),[9],-0.561
same,glycan array binding signal (z-score),[10],-0.861
same,glycan array binding signal (z-score),[11],-0.094
same,glycan array binding signal (z-score),[12],-1.08
same,glycan array binding signal (z-score),[13],-0.656
same,glycan array binding signal (z-score),[14],-1.01
same,glycan array binding signal (z-score),[15],-0.34
same,glycan array binding signal (z-score),[16],0.409
same,glycan array binding signal (z-score),[17],-0.729
same,glycan array binding signal (z-score),[18],-0.529
same,glycan array binding signal (z-score),[19],-0.351
same,glycan array binding signal (z-score),[20],-1.02
same,glycan array binding signal (z-score),[21],-0.615
same,glycan array binding signal (z-score),[22],-0.59
same,glycan array binding signal (z-score),[23],-0.224
same,glycan array binding signal (z-score),[24],-0.034
same,glycan array binding signal (z-score),[25],-1.17
same,glycan array binding signal (z-score),[26],-0.554
same,glycan array binding signal (z-score),[27],-0.834
same,glycan array binding signal (z-score),[28],-0.897
same,glycan array binding signal (z-score),[29],-0.314
same,glycan array binding signal (z-score),[30],-0.943
same,glycan array binding signal (z-score),[31],-0.339
same,glycan array binding signal (z-score),[32],1.49
same,glycan array binding signal (z-score),[33],-0.223
same,glycan array binding signal (z-score),[34],-0.969
same,glycan array binding signal (z-score),[35],-0.531
same,glycan array binding signal (z-score),[36],-1.09
same,glycan array binding signal (z-score),[37],-0.876

# Random excerpt: 2 records from the list.
binder,measurement,setting,value
B1,glycan array binding signal (z-score),[26],-0.554
same,glycan array binding signal (z-score),[35],-0.531
